Consider one substance from article doi:10.1101/2025.09.29.679208.

Chains of the proteins cited; added tags and fusions are not shown. Lines headed by an entry give the natural chain unless they say otherwise; changes in a name come on top.
UniProt Q8N6T7: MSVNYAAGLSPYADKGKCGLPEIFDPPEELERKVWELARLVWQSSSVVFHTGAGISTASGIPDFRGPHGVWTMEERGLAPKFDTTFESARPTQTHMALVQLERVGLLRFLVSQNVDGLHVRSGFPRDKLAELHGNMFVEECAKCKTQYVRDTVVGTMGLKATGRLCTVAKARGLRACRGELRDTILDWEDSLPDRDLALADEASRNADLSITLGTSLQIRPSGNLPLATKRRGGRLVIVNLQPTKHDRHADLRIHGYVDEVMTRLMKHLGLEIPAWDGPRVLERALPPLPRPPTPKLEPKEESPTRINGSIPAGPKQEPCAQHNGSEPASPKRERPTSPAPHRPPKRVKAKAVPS
UniProt P08670: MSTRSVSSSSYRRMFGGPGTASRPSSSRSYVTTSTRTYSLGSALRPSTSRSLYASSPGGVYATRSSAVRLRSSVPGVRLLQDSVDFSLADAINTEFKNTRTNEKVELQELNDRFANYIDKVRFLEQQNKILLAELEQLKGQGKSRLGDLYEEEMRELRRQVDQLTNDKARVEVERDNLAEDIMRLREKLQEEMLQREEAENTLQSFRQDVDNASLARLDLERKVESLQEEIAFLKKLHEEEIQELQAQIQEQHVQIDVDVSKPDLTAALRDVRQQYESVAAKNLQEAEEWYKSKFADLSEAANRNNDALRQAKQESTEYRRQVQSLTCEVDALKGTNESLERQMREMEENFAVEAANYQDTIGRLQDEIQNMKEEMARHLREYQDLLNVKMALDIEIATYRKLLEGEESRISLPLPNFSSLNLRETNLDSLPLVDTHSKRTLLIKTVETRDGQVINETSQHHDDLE

These are yes or no findings as the source states them, for the method shown. Binding seen in cells or lysates may run through a third protein. Some binding calls cover weakened binding; strength is not graded here.

For test [1], the target named is Sirtuin 6 (SIRT6), wild type (human (endogenous in hMSCs)) (UniProt Q8N6T7). Nature of the test: co-IP.
Test [2] addresses centenarian SIRT6 protein (CentSIRT6; N308K and A313S) (human (endogenous in hMSCs)) (UniProt Q8N6T7). Nature of the test: co-IP.

In the case of “vimentin (VIM) (from UniProt P08670 1-466)”, the binding result in test [1] and in test [2] was “binds” each time.
